The values below come from publication PMC10831263.

By UniProt entry, the sequences of proteins in these tests, tags left out. Where a name states a change or a piece, a line headed by the entry shows the natural chain unless it says otherwise. Chains listed by the source or under a name are the forms on record and can include a tag or linker. Residues count along the entry.
UniProt Q13772: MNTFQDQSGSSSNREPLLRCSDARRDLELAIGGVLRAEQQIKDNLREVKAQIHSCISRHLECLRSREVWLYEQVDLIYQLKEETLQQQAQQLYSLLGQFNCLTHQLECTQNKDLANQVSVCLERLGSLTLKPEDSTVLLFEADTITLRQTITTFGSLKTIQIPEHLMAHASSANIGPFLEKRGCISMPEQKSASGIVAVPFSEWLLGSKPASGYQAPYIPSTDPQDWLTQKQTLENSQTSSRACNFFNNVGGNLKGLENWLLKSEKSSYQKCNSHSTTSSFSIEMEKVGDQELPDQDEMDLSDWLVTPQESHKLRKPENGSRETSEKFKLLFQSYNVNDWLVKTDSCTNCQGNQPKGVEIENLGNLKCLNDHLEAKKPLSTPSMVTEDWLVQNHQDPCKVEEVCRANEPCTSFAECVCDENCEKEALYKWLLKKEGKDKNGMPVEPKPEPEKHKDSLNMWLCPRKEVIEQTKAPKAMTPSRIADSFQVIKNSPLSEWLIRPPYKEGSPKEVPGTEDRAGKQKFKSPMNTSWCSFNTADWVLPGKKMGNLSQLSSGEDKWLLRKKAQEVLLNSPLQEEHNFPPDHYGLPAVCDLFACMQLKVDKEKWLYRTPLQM
HA-tagged full-length NCOA4 mutant 4C > A (Q13772, form named): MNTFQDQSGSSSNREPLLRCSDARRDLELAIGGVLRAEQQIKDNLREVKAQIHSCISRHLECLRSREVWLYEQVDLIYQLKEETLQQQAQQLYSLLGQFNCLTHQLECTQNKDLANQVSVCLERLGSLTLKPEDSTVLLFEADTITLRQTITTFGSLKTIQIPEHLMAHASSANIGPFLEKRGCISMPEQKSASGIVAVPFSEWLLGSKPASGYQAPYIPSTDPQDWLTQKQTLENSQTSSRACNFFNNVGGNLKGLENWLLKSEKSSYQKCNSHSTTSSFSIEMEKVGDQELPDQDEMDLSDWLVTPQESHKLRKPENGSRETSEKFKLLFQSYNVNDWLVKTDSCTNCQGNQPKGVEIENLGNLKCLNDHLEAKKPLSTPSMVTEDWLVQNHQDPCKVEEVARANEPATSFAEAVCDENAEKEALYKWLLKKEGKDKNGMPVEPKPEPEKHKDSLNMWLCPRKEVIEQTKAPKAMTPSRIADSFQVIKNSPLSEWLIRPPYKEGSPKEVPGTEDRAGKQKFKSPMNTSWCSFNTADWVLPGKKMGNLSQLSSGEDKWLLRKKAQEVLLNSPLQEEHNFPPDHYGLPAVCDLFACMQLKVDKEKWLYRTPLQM
UniProt O95714, residues 2540-2700: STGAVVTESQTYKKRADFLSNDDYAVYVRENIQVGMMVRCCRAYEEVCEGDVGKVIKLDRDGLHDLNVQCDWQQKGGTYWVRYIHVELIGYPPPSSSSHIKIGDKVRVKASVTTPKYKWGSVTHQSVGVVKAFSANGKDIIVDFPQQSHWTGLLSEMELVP

In assay [1] the target is HA-tagged full-length NCOA4 (WT) (human) (UniProt Q13772). As to the kind of experiment: co-IP; HEK293 cells cotransfected with HA-tagged NCOA4 (WT or mutants) and myc-tagged HERC2 (2540–2700th), lysed 24 h after transfection (50 mM Tris-Cl pH 7.5, 150 mM NaCl, 0.1% NP-40); IP with anti-HA magnetic beads 4 h at 4 °C, blot for HA and myc; untreated or treated with DFO (100 μM) or FAC (200 μM) for 6 h.

Assay [2] addresses HA-tagged full-length NCOA4 mutant 4C > A (human) (UniProt Q13772). The assay is described as above.

No constants are given. Whether binding was seen depends on the method and setting. Binding seen in cells or lysates may run through a third protein. Some binding calls cover weakened binding; strength is not graded here.

For the substance “myc-tagged truncated HERC2 (amino acids 2540–2700th) (from UniProt O95714 2540-2700) (domain or fragment)”, the binding result in assay [1] is reported as “binds”; in assay [2], “no binding”.
